Results published in PubChem BioAssay AID504834 (National Center for Advancing Translational Sciences (NCATS), 2011).
Among all 320,000 compounds or so, about 22,000 (6.9%) were called active. Inconclusive means that the source gave no clear call. Such entries were picked first, then a sample of the others. Calls follow the shape of the dose curve; as a rule, active = well fitted inhibition curve with a large enough effect; inconclusive = small, poorly fitted or top-dose-only effect, or another doubt; inactive = no such curve, though single readings can be large or run the other way. Where the call is inconclusive, the potency comes from a doubtful curve fit.
% is scaled to controls: 0 for no effect and ±100 for the full control effect; potency is read from the fitted curve at half-maximal effect.

Test: Primary qHTS for delayed death inhibitors of the malarial parasite plastid, 96 hour incubation
Settings: P. falciparum luciferase reporter growth; series mostly up to 28.7 µM; activity change, negative = inhibition: at the top concentration
Outline: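 Readout is luminescence from an integrated firefly luciferase in P. falciparum. Red cells, 2% hematocrit and 0.05% parasitemia final, were cultured with compound through two parasite generations (96 hours) at 37 C, 5% CO2.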
For `CSc1ccc(CN(C)C(=O)CCNS(=O)(=O)c2ccc(C)c(C)c2)cc1`, the Potency was inconclusive: 2.33 µM [inhibitor, partial curve, poor fit]. With `O=C(CS(=O)(=O)c1c[nH]c2ccccc12)N1CCc2ccccc21` the “activity change, negative = inhibition” value was inactive: 46.9%. In the case of `CC1CCN(c2c(NCC3CCC(C(=O)N4CCCCC4)CC3)c(=O)c2=O)CC1` (stereo not drawn), the Potency was inconclusive: 18.5 µM [inhibitor, partial curve, poor fit]. For `Cc1ccc(S(=O)(=O)N2CCSC2C(=O)O)cc1` (stereo not drawn), the “activity change, negative = inhibition” value was inactive: -0.715%. For `COc1nsnc1NS(=O)(=O)c1ccc(NC(=S)NC(=O)c2cccnc2)cc1`, the “activity change, negative = inhibition” value was inactive: 40.8%. With `CCOc1ccc(NC(=O)CN(C)C(=O)CCC2CCCCC2)cc1OCC` the Potency was active: 14.7 µM. In the case of `O=C(NC(=S)Nc1ccccc1N1CCOCC1)c1ccco1`, the “activity change, negative = inhibition” value was inactive: 37%. With `CCCn1c(=O)c2ccccc2n2c(SCc3cc(=O)oc4ccc5ccccc5c34)nnc12` the Potency was inconclusive: 18.5 µM [inhibitor, single point]. In the case of `O=c1[nH]c(=O)n(-c2ccccc2Cl)c(O)c1C=NCCN1CCCCC1`, the “activity change, negative = inhibition” value was inactive: 6.93%. For `COc1ccc(NC(=O)Cn2cnc3c(cnn3-c3ccc(C)c(C)c3)c2=O)c(OC)c1`, the Potency was inconclusive: 18.5 µM [inhibitor, single point]. In the case of `Cn1c(SCC(=O)c2ccc(F)cc2)nnc1-c1cnccn1`, the Potency was inconclusive: 18.5 µM [inhibitor, single point]. In the case of `NN1C(=O)/C(=C2/Sc3ccccc3N2CCCS(=O)(=O)O)SC1=S`, the “activity change, negative = inhibition” value was inactive: 0%. With `CCOc1ccc(-c2nc(N)ncc2-c2ccccc2)c(O)c1` the Potency was inconclusive: 18.5 µM [inhibitor, single point]. For `O=C(NCc1cccnc1)c1ccc(NC(=O)c2cccc([N+](=O)[O-])c2)cc1`, the Potency was inconclusive: 2.62 µM [inhibitor, partial curve, poor fit]. In the case of `CCOC(=O)c1nn(-c2cccc(OC)c2)c2nc(Nc3ccccc3)cc(=O)n12`, the Potency was inconclusive: 9.28 µM [inhibitor, single point]. For `O=C(O)c1ccccc1C(=O)N1CCN(Cc2ccc3c(c2)OCO3)CC1`, the “activity change, negative = inhibition” value was inactive: 27.6%. In the case of `CN(C)S(=O)(=O)c1cc(NC(=O)CN2CCN(c3ccccc3)CC2)ccc1Cl`, the Potency was inconclusive: 4.15 µM [inhibitor, partial curve]. For `CCOC(=O)C1C(O)=CC(=O)CC1c1ccccc1` (stereo not drawn), the “activity change, negative = inhibition” value was inactive: 52.9%. In the case of `Fc1ccccc1CCNc1nnnn1-c1ccccc1`, the Potency was inconclusive: 4.65 µM [inhibitor, partial curve, poor fit]. For `COCCCN(C(=O)Cc1csc(-c2cccc(Cl)c2)n1)c1c(N)n(Cc2ccccc2)c(=O)[nH]c1=O`, the Potency was inconclusive: 9.28 µM [inhibitor, single point]. For `O=C1CC(Sc2nnnn2C2CCCCC2)C(=O)N1c1ccccc1` (stereo not drawn), the “activity change, negative = inhibition” value was inactive: 34.1%. With `COc1cc(C(=O)NCCCc2nc3ccccc3n2Cc2cc(C)ccc2C)cc(OC)c1OC` the Potency was inconclusive: 11.7 µM [inhibitor, single point]. For `CC(=O)c1cccc(NC(=O)CCc2nnc3ccc(NCc4ccc5c(c4)OCO5)nn23)c1`, the Potency was inconclusive: 18.5 µM [inhibitor, single point]. In the case of `CCOC(=O)CC1C(=O)NCCN1S(=O)(=O)c1ccccc1Cl` (stereo not drawn), the Potency was inconclusive: 0.465 µM [inhibitor, full curve, poor fit]. With `Cc1ccc(COc2ccccc2-c2cc(C(=O)N/N=C/c3cccnc3)[nH]n2)cc1` the Potency was inconclusive: 0.131 µM [inhibitor, partial curve, poor fit]. For `Cc1ccc2c(c1)=C/C(=C\c1c(O)[nH]c(=O)[nH]c1=O)C(=O)N=2`, the Potency was inconclusive: 2.62 µM [inhibitor, single point]. In the case of `Nc1nonc1C(=O)NCCNC(=O)c1ccc(Cl)cc1`, the Potency was inconclusive: 11.7 µM [inhibitor, single point]. With `O=C(CN1C(=O)CSc2ccc(S(=O)(=O)N3CCOCC3)cc21)NCCCN1CCc2ccccc2C1` the “activity change, negative = inhibition” value was inactive: 15.5%. With `COC(=O)c1ccc(-c2c(-c3ccccc3)ncc3cc(OC)c(OC)cc23)cc1` the Potency was inconclusive: 7.38 µM [inhibitor, partial curve, poor fit]. For `CCOC(=O)C1(Cc2cccc(Cl)c2)CCCN(C(=O)CCOC)C1` (stereo not drawn), the “activity change, negative = inhibition” value was inactive: 5.34%. With `CNC(=O)c1[nH]cnc1C(=O)N[C@@H](C)C(=O)OCc1ccccc1` the Potency was inconclusive: 1.31 µM [inhibitor, full curve]. With `Cc1ccc(C(=O)N/N=c2\sc3ccccc3n2C)cc1` the “activity change, negative = inhibition” value was inactive: -14.1%. With `CS(=O)(=O)N(CC(=O)N1CCOCC1)c1cc(Cl)ccc1Cl` the Potency was inconclusive: 3.7 µM [inhibitor, partial curve, poor fit]. In the case of `Cc1cc(C)nc(NC(=O)CCC2CCCC2)c1`, the “activity change, negative = inhibition” value was inactive: -3.92%. In the case of `Cc1cccc(N2CCN(C(=O)COc3ccc4c(c3)CCC4)CC2C)c1` (stereo not drawn), the “activity change, negative = inhibition” value was inactive: -19.8%. With `CCOC(=O)C1CCN(c2cc(C)nc3ccc(OC)cc23)CC1` the Potency was inconclusive: 0.262 µM [inhibitor, full curve, poor fit]. For `CCN(CC)CCNC(=O)/C(=C/c1cn(CC)c2ccccc12)NC(=O)c1cc(OC)c(OC)c(OC)c1`, the Potency was inconclusive: 18.5 µM [inhibitor, single point]. In the case of `COc1ccc(N2CCN(C(=O)CCN3C(=O)c4ccccc4S3(=O)=O)CC2)cc1`, the Potency was inconclusive: 18.5 µM [inhibitor, single point]. For `CN(Cc1c(F)cccc1Cl)c1ccc(S(=O)(=O)N2CCOCC2)cn1`, the Potency was inconclusive: 18.5 µM [inhibitor, single point]. In the case of `Cc1ccc(NC(=O)CC2SC(=NCC3CCCO3)NC2=O)cc1Cl` (stereo not drawn), the Potency was inconclusive: 18.5 µM [inhibitor, single point]. For `CCOc1ccc(Br)cc1C(=S)N1CCCC1`, the Potency was inconclusive: 18.5 µM [inhibitor, single point]. For `COc1ccc(C(NC(=O)CN2C(=O)NC3(CCc4ccccc43)C2=O)c2ccc(OC)cc2)cc1` (stereo not drawn), the Potency was inconclusive: 11.7 µM [inhibitor, single point]. For `CC(C)OCCCn1c(=NC(=O)c2cccs2)c(C#N)cc2c(=O)n3ccccc3nc21`, the Potency was inconclusive: 3.29 µM [inhibitor, single point]. For `Cc1cc(Cl)ccc1NC(=S)NCc1ccc(S(N)(=O)=O)cc1`, the Potency was inconclusive: 18.5 µM [inhibitor, single point]. For `Cc1ccc(S(=O)(=O)N2CCCCC2)cc1C(=O)NCCC1=CCCCC1`, the Potency was inconclusive: 18.5 µM [inhibitor, single point]. In the case of `Cc1ccc(C(=O)c2c3ccc(C(F)(F)F)cc3nn2CCC(N)=O)cc1`, the Potency was inconclusive: 11.7 µM [inhibitor, single point]. With `O=C1CCCC2=C1C(c1cccs1)Nc1ccc3ncccc3c12` (stereo not drawn) the “activity change, negative = inhibition” value was inactive: 44.9%. With `CC1CC(CC(=O)NC(=S)Nc2ccccc2Cl)C(=O)O1` (stereo not drawn) the Potency was inconclusive: 16.5 µM [inhibitor, single point]. With `CN(C)CCN1CC(O)=C(c2nc3ccccc3s2)C1=N` the Potency was inconclusive: 11.7 µM [inhibitor, single point]. For `O=C(CSc1nc2ccccc2c(=O)n1-c1ccccc1)NCC1CCCO1` (stereo not drawn), the “activity change, negative = inhibition” value was inactive: 49.1%. With `O=C(COc1ccc(Cl)cc1)Nc1cnn(Cc2c(Cl)cccc2Cl)c1` the Potency was inconclusive: 0.0033 µM [inhibitor, full curve, poor fit]. With `C/C(Nc1ccc(C)cc1)=C(/C#N)C(N)=O` the “activity change, negative = inhibition” value was inactive: 35.3%. For `O=C1CCCN1CCCNc1ccc2nnc(CCC(=O)N3CCN(c4ccc(F)cc4)CC3)n2n1`, the “activity change, negative = inhibition” value was inactive: 8.97%. In the case of `Cc1c(C(=O)N2CCN(c3ccccc3)CC2)oc2c(F)cccc12`, the Potency was inconclusive: 14.7 µM [inhibitor, partial curve]. In the case of `O=C(CCN1C(=O)/C(=C/c2ccc(F)cc2)SC1=S)N[C@@H](CO)Cc1ccccc1`, the Potency was inconclusive: 20.8 µM [inhibitor, partial curve, poor fit]. In the case of `Cc1nc(C)n(C(C)CNC(=O)c2ccccc2)n1` (stereo not drawn), the Potency was inconclusive: 10.4 µM [inhibitor, single point]. For `COC(=O)C1=C(c2ccc(F)cc2OCc2ccccc2)C[C@@H]2CC[C@H]1N2C(=O)NCCc1ccc(F)cc1`, the Potency was inconclusive: 4.65 µM [inhibitor, partial curve]. With `COC(=O)c1cc(-c2ccc3c(c2)OCO3)nc2ccccc12` the Potency was active: 0.415 µM. For `O=C(/C=C/c1cccnc1)/C=C/c1cccnc1`, the Potency was inconclusive: 2.62 µM [inhibitor, full curve, poor fit]. In the case of `COc1ccc(NC(=S)/N=C(\N)Nc2nc(C)c3ccc(C)cc3n2)cc1`, the “activity change, negative = inhibition” value was inactive: -11.7%. In the case of `COc1ccc(/C=C2\SC(N3CCc4ccccc4C3)=NC2=O)cc1`, the Potency was inconclusive: 2.62 µM [inhibitor, full curve, poor fit]. For `COc1cccc(CNC(=O)Cn2nc(C)c([N+](=O)[O-])c2C)c1`, the Potency was inconclusive: 9.28 µM [inhibitor, partial curve, poor fit]. In the case of `CCCN(CCC)c1nc(N)c(C#N)c(CC#N)c1C#N`, the Potency was active: 13.1 µM. With `NC(=O)C1CCN(c2nc(-c3ccccc3F)cs2)CC1` the Potency was inconclusive: 2.08 µM [activator, single point]. With `CC(C)Oc1cccc(C(=O)C2CCCN(C(=O)c3csnn3)C2)c1` (stereo not drawn) the Potency was inconclusive: 9.28 µM [inhibitor, single point]. For `O=C(CSc1ccc([N+](=O)[O-])cn1)Nc1ccccc1N1CCOCC1`, the “activity change, negative = inhibition” value was inactive: 3.97%. In the case of `COC(=O)C1=C(c2ccc(F)cc2OCc2ccccc2)C[C@@H]2CC[C@H]1N2C(=O)NCc1ccc(OC)cc1`, the Potency was inconclusive: 13.1 µM [inhibitor, single point]. In the case of `COc1cccc(CN2CC(C(=O)NCCOc3cccnc3)CCC2=O)c1` (stereo not drawn), the Potency was inconclusive: 0.0738 µM [inhibitor, full curve, poor fit].
